Experimental data: US20260015434A1, “ANTIBODY MATERIALS AND METHODS TARGETING MICROBIAL POLYSACCHARIDES” (priority 2022, published 2026)
Some results were stated once for a whole list of compounds, not compound by compound.

System: S. epidermidis biofilm formation
Experiment: S. epidermidis biofilm formation inhibition assay (crystal violet)
Assay type: cell-based
Conditions: 200 μg/mL, 8-hour timepoint, relative to no IgG or the isotype control F628

B1: TG10: Antibody, HC SEQ ID NO: 3, LC SEQ ID NO: 12; primer mutations in ADI-45379 reverted to germline (antibody, V domains shown)
VH: EVQLVESGGGLVQPGGSLRLSCAVSGFPFSSYWMSWVRQAPGKGLEWVANIKEDGSEKYYVDSVKGRFTISRDNAKNSLYLQMNSLRAEDTAVYYCATDPDVGLSDSWGQGTLVTVSS
VL: EIVLTQSPGTLSLSPGDRATHSCRASQSVSRSYLAWYQQKPGQTPRLFIYGASNRATGIPDRFSGSGSGTYFTLTISRLEPEDFAVYYCQQYDSAPDTFGQGTRLEIK
modifications: TG10 Heavy Chain Variable Region; TG10 Light Chain Variable Region
notes: primer mutations in ADI-45379 reverted to germline
  inhibition of biofilm formation: > 50%
